No constants are given. Whether binding was seen depends on the method and setting. In cells and extracts the contact can be indirect. Some entries that bind do so weakly or less than the wild type.

By UniProt entry, the sequences of proteins in these tests, tags left out. Residues count along the entry.
UniProt P21926: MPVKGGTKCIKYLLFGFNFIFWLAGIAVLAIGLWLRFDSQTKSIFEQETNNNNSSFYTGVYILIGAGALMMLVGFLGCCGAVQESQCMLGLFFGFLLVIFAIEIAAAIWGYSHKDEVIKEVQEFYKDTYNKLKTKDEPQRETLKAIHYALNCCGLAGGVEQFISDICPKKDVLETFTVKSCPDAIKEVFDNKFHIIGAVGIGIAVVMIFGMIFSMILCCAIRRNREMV
UniProt P05362, residues 28-532: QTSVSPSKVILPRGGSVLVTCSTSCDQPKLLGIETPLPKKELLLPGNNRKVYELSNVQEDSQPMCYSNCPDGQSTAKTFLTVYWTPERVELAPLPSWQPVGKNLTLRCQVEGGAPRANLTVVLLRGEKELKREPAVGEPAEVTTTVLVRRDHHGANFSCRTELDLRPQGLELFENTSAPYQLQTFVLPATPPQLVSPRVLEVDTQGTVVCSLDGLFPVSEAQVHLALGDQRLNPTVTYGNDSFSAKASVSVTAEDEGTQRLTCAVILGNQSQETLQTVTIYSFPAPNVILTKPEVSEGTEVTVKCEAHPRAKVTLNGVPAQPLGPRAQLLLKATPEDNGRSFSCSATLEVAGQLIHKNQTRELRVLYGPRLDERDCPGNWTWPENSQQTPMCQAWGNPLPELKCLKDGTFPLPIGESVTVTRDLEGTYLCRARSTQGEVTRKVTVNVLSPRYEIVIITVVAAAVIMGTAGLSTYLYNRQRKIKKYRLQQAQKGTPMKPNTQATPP

Among the data in PMC12390632 are binding values, retold here.

The test deals with CD9 (tetraspanin CD9), endogenous (human (endogenous in SW480 and A549)) (UniProt P21926). The experiment in a line: proximity ligation.

In the case of “ICAM-1, endogenous (from UniProt P05362 28-532)”, the binding result is listed as “binds”.
